Results are given in words; binding and its absence hold for the method and conditions named. Where a sequence is shown, tags or fusion partners need not be part of it.

For the assay, the target named is T1, His6-YidC (E. coli, UniProt P25714 1-548).
T1 sequence (looked up): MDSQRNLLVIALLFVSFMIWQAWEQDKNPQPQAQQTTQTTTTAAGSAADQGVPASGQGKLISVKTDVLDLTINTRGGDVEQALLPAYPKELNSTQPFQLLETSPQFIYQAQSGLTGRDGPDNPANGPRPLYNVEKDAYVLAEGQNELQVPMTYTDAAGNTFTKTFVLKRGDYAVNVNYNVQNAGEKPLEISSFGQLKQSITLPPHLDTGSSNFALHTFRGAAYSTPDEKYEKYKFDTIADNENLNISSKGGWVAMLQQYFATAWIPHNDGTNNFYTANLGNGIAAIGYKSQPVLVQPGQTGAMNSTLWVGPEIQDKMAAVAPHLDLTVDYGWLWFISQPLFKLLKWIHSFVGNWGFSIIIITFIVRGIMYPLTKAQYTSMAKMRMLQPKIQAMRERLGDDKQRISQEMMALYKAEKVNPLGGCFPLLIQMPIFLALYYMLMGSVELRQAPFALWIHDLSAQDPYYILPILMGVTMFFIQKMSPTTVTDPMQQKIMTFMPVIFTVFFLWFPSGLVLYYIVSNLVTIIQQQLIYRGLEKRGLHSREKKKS
As to the kind of experiment: native gel or EMSA.

B1: YibN△1-29-His6 (domain or fragment, UniProt P0AG27 30-143)
chain: FKSLTSKVKVITRGEATRLINKEDAVVVDLRQRDDFRKGHIAGSINLLPSEIKANNVGELEKHKDKPVIVVDGSGMQCQEPANALTKAGFAQVFVLKEGVAGWAGENLPLVRGK
With B1, the binding result was “no binding (tested: 3 µg each)”.

For the origin of these results see doi:10.1101/2024.12.13.628402 (bioRxiv, 2024).
